In the assay the target is T1, Lipopolysaccharide-binding protein (human (endogenous in A549)) (UniProt P18428).
T1 sequence: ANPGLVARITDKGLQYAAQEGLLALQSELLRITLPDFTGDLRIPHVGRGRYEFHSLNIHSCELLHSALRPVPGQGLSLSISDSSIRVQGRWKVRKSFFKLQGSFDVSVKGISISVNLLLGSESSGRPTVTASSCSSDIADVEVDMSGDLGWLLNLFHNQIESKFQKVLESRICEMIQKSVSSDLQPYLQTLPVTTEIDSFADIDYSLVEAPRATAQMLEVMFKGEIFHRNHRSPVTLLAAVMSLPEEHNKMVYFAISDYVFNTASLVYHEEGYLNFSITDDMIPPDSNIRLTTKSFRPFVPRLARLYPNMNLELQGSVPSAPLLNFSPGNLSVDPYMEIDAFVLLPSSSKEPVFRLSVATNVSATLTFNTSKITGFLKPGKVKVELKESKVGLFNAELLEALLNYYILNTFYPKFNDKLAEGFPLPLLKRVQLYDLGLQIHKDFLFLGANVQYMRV
Briefly: co-IP; 3 ug anti-LBP antibody (ab169776) added to 500 ug extracted A549 proteins, 4°C 60 min, Magnetic Protein G Beads 4°C overnight, four PBS washes; blots for phospho-p38 MAPK and phospho-p65; rabbit IgG and no antibody as controls; cells untreated (control) or treated with LPS 10 ug/mL (lysed 1 h after), with or without LBP plasmid, LBP shRNA plasmid, SB203580 or SC-514.

Sequences of proteins named here, by UniProt entry; tags and fusion partners are left off.
UniProt Q04206: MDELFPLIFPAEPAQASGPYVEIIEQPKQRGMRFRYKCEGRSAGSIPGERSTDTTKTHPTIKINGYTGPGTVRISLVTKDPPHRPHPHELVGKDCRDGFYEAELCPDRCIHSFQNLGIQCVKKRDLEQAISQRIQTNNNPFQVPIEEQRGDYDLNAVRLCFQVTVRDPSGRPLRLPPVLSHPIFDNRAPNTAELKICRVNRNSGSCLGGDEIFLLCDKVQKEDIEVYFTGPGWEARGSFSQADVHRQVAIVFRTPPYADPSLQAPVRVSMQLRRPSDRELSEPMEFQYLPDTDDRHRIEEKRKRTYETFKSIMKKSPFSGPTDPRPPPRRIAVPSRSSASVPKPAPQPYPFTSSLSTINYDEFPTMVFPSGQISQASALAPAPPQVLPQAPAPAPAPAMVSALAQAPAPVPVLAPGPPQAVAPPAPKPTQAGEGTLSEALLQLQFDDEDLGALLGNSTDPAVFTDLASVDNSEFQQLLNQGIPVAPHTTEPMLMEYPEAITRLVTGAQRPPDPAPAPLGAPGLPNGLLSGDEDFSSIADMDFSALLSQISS

Results are given in words; binding and its absence hold for the method and conditions named. Binding seen in cells or lysates may run through a third protein. Some entries that bind do so weakly or less than the wild type.

Turning to phospho-p65 (from UniProt Q04206 1-551), the binding entry was “binds weakly”.

These data come from publication PMC5467387.
